# Measurements reported in PubChem BioAssay AID1259308 (NCATS, 2017)
# Aim: 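Candidate targets for better recombinant protein yield in mammalian cells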 (primary screen)
# Cell system: human HEK293 embryonic kidney cells stably expressing firefly luciferase (HEK-CMV-Luc2-Hygro)
# Reagent: single siRNA against human genes, 0.8 pmol siRNA per well
# Time to read-out: 72 h
# Read-out: 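Luciferase light (ONE-Glo) measured on one replicate plate set and viability (CellTiter-Glo) on the other, scaled to a negative control siRNA, with robust z-scores and luciferase per cell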
# Scale: total luciferase, z-score and total luciferase, % of control: higher = more reporter protein produced; luciferase per cell, z-score: higher = more reporter output per viable cell; viable cells, % of control: higher = more viable cells
# Call rule: 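An siRNA counts as active if its total luciferase robust z-score exceeds 3; genes with two or more such siRNAs out of three were retested with fresh siRNAs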
# Calls: active = raised luciferase; inactive = no rise
# Shown is a random part of about 59,000 reagents. In the full data, about 1,510 (2.6%) are marked active. 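Calls use total luciferase alone and ignore viability, so some active siRNAs may act by altering cell number.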 A number with no mark means an inactive call. Reagents against one gene are numbered here. No sequences are given here.
Target gene,siRNA no.,"total luciferase, z-score","total luciferase, % of control","luciferase per cell, z-score","viable cells, % of control"
TYW1 (tRNA-yW synthesizing protein 1 homolog),1,-1.75,47,-1.13,70.6
TYW1 (tRNA-yW synthesizing protein 1 homolog),2,-1.98,42.5,-2.78,98.8
TYW1 (tRNA-yW synthesizing protein 1 homolog),3,1.46,111,0.664,104
DCAF15 (DDB1 and CUL4 associated factor 15),1,-1.09,60.2,-0.183,70.6
DCAF15 (DDB1 and CUL4 associated factor 15),2,0.751,96.8,-0.196,114
DCAF15 (DDB1 and CUL4 associated factor 15),3,1.05,103,1.39,79.6
KCNG2,1,-0.149,78.9,-0.489,100
KCNG2,2,1.06,103,0.883,91.2
KCNG2,3,3.92 (active),160,2.6,90.1
MYH4 (myosin heavy chain 4),1,-1.87,44.7,-0.201,52.7
MYH4 (myosin heavy chain 4),2,-1.3,56.1,-1.64,96.5
MYH4 (myosin heavy chain 4),3,-0.531,71.3,0.156,76.5
MAP1S (microtubule associated protein 1S),1,-0.87,64.6,-0.962,93
MAP1S (microtubule associated protein 1S),2,2.85,139,2.1,89.1
MAP1S (microtubule associated protein 1S),3,-1.54,51.3,-1.18,78.1
SMAD5 (SMAD family member 5),1,-1.99,42.3,-2.36,87.9
SMAD5 (SMAD family member 5),2,0.0394,82.7,-0.328,101
SMAD5 (SMAD family member 5),3,-0.561,70.7,-0.475,89.6
OR51S1 (olfactory receptor family 51 subfamily S member 1),1,1.05,103,1.37,80.2
OR51S1 (olfactory receptor family 51 subfamily S member 1),2,0.7,95.8,0.217,101
OR51S1 (olfactory receptor family 51 subfamily S member 1),3,0.943,101,1.07,84.9
ZNF585B (zinc finger protein 585B),1,-0.169,78.5,0.121,85
ZNF585B (zinc finger protein 585B),2,-0.971,62.6,-1.16,94.9
ZNF585B (zinc finger protein 585B),3,1.34,108,1.24,87.4
EIF2B5 (eukaryotic translation initiation factor 2B subunit epsilon),1,-2.16,38.9,-2.86,92.1
EIF2B5 (eukaryotic translation initiation factor 2B subunit epsilon),2,-1.23,57.5,-1.11,86.1
EIF2B5 (eukaryotic translation initiation factor 2B subunit epsilon),3,-0.723,67.5,-0.39,83.6
QPRT (quinolinate phosphoribosyltransferase),1,-0.0161,81.6,0.674,76.3
QPRT (quinolinate phosphoribosyltransferase),2,1.18,105,1.13,87.5
QPRT (quinolinate phosphoribosyltransferase),3,0.375,89.3,0.813,80.6
WWC2 (WW and C2 domain containing 2),1,-1.48,52.5,-2.53,114
WWC2 (WW and C2 domain containing 2),2,0.0616,83.1,0.141,89.5
WWC2 (WW and C2 domain containing 2),3,-0.593,70.1,-0.165,81.8
ESX1 (ESX homeobox 1),1,-0.538,71.2,-0.486,90.4
ESX1 (ESX homeobox 1),2,0.967,101,0.403,102
ESX1 (ESX homeobox 1),3,0.214,86.1,0.636,81.4
CHRNA2 (cholinergic receptor nicotinic alpha 2 subunit),1,-0.467,72.6,-0.287,87.5
CHRNA2 (cholinergic receptor nicotinic alpha 2 subunit),2,-0.232,77.3,0.819,69.6
CHRNA2 (cholinergic receptor nicotinic alpha 2 subunit),3,-0.227,77.4,0.605,73.7
PNOC (prepronociceptin),1,1.49,112,0.994,96
PNOC (prepronociceptin),2,0.28,87.4,0.0594,96.2
PNOC (prepronociceptin),3,1.54,113,0.772,103
KRTAP1-3 (keratin associated protein 1-3),1,-0.641,69.1,-1.15,105
KRTAP1-3 (keratin associated protein 1-3),2,0.556,92.9,1.54,69.3
KRTAP1-3 (keratin associated protein 1-3),3,-0.815,65.7,-0.361,80.7
RNF5 (ring finger protein 5),1,0.261,87.1,1.25,69.9
RNF5 (ring finger protein 5),2,1.46,111,1.48,83.9
RNF5 (ring finger protein 5),3,1.54,113,1.4,87
ARFIP1 (ARF interacting protein 1),1,-0.18,78.3,0.223,82.5
ARFIP1 (ARF interacting protein 1),2,-2.11,39.8,-2.36,82.8
ARFIP1 (ARF interacting protein 1),3,1.81,118,1.06,99.6
OR2L13 (olfactory receptor family 2 subfamily L member 13),1,-1.18,58.3,-1.13,87.8
OR2L13 (olfactory receptor family 2 subfamily L member 13),2,-0.849,65,0.166,69.5
OR2L13 (olfactory receptor family 2 subfamily L member 13),3,1.92,120,2.61,67.5
TYROBP (transmembrane immune signaling adaptor TYROBP),1,0.25,86.9,0.893,76.7
TYROBP (transmembrane immune signaling adaptor TYROBP),2,-0.919,63.6,0.153,68.3
TYROBP (transmembrane immune signaling adaptor TYROBP),3,0.0667,83.2,0.239,87.3
L1TD1 (LINE1 type transposase domain containing 1),1,-0.0705,80.5,-0.347,98.5
L1TD1 (LINE1 type transposase domain containing 1),2,2.42,130,1.33,102
L1TD1 (LINE1 type transposase domain containing 1),3,-0.668,68.6,-1.01,100
KRT32 (keratin 32),1,-1.88,44.5,-2.6,98.4
KRT32 (keratin 32),2,-1.25,57.1,-1.13,85.9
KRT32 (keratin 32),3,-0.915,63.7,-1.52,106
CCDC32 (coiled-coil domain containing 32),1,1.32,108,0.384,109
CCDC32 (coiled-coil domain containing 32),2,0.632,94.4,0.218,99.6
CCDC32 (coiled-coil domain containing 32),3,-0.0816,80.3,0.35,81.8
ADGRG4 (adhesion G protein-coupled receptor G4),1,0.0752,83.4,0.722,77
ADGRG4 (adhesion G protein-coupled receptor G4),2,-1.6,50,-1.76,88.9
ADGRG4 (adhesion G protein-coupled receptor G4),3,-0.788,66.2,-0.729,89.7
TSACC (TSSK6 activating cochaperone),1,-0.102,79.9,-0.348,97.8
TSACC (TSSK6 activating cochaperone),2,0.433,90.5,-0.618,119
TSACC (TSSK6 activating cochaperone),3,2.86,139,2.05,90.3
ELMOD2 (ELMO domain containing 2),1,4.61 (active),174,3.3,81.5
ELMOD2 (ELMO domain containing 2),2,-0.541,71.1,0.925,62.3
ELMOD2 (ELMO domain containing 2),3,-0.645,69.1,-0.753,94.1

Looked up above.
QPRT (quinolinate phosphoribosyltransferase) #2, viable cells, % of control → 87.5
For “viable cells, % of control”, ZNF585B (zinc finger protein 585B) #2 has 94.9
MYH4 (myosin heavy chain 4) #2, viable cells, % of control → 96.5
For “luciferase per cell, z-score”, L1TD1 (LINE1 type transposase domain containing 1) #2 is entered as 1.33
ZNF585B (zinc finger protein 585B) #3, total luciferase, z-score = 1.34
For “luciferase per cell, z-score”, L1TD1 (LINE1 type transposase domain containing 1) #3 reads -1.01
